Screen size: about 53,000 sequences; about 3,700 (7%) were called active.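 The calls were made as follows: active = gene knockdowns whose robust z-score for IL-1 alpha signal is at least 2 or at most -2, so actives lie on both sides; inactive = the rest.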 Some of the results follow.

The nature of the experiment: Components of the Cytosolic LPS Sensing Pathway: Gene Identification via Genome-wide siRNA Screen.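 Also: robust z of the log signal after scaling to non-targeting control siRNA wells of the plate.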 The note with it: RAW264.7 macrophages, IL-1a HTRF, actives lie on both sides, screened at 100 nM (by protocol), cells primed 5 h with Pam3CSK4 first. The procedure, abridged: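 Using IL-1a HTRF as read-out, the screen measured release from RAW264.7 cells after 48h siRNA knockdown (100 nM), 5 h Pam3CSK4 priming and 24 h cytosolic LipidA. Values were expressed relative to negative-control wells as robust z-scores.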
GGGAUUCUCAGGUCACUGUTT against Nectin4: the z-score was inactive: 0.14.

Turning to GCCUAGAACUGAUGGAGCUTT against Trp73, the z-score is inactive: 1.21.

In the case of GGAUCCUUACUACAGAUUUTT against Manba, the z-score was inactive: 0.839.

Regarding AGUAACCUGAGACAACACCTT against Zbtb25, the z-score was inactive: 0.231.

For the sequence CCCGAUUGAUAUUCCAAACTT against Piwil1, the z-score was inactive: 0.822.

Turning to GGAGUUUUUACAGUGCUUUTT against Brinp3, the z-score was inactive: 0.565.

Consider GGUGAUUGUUAGAGUUAAATT against Syt4, for which the z-score was inactive: 0.934.

For GGUCAAGAUGCAGAAAGGUTT against Odf2, the z-score was inactive: -1.4.

As for GGAACAACUGUAAGUCCACTT against Kng2, the z-score was inactive: -0.192.

As for GGAAAUCACAAACUUGUGGTT against Tspan12, the z-score was inactive: 1.25.

Take GCUUUGUCUCAAAGAAAAATT against Olfr145: the z-score is inactive: 1.24.

Take CCUUAAAACUGAUUACACCTT against Bach2: the z-score was inactive: 0.481.

For the sequence CCAUUGUUUGGACUGUUCCTT against Olfr1066, the z-score is inactive: -0.169.

As to GAUUCCAAGACAUUAAACATT against Fxn, the z-score is inactive: 0.485.

As for GCAUCAAACAAUUUGUCGUTT against Ptgis, the z-score is inactive: 0.0275.

In the case of CCUCACCAGGUAAAUUUUUTT against Ro60, the z-score was inactive: -1.25.

For the sequence GGACAAACAGGGAGAAAGATT against Mogat2, the z-score was inactive: -0.091.

On to GACUUCAUGGUCAAACUUATT against Rpl4, for which the z-score was inactive: 0.621.

Regarding GCAUGCUGACCACAAUAGATT against Arhgef11, the z-score is inactive: 0.768.

Regarding GGAGAAGGAACUGUGUGAGTT against Nfkbil1, the z-score is active: -2.26.

For the sequence GCAGCCUACUAACCGGAUUTT against Cited4, the z-score is inactive: 0.119.

In the case of GACAUUGUCUGAUUUUGGATT against Vmn1r81, the z-score is inactive: -1.22.

As to GGAGAUCUUCAAUAUGUUATT against Supt6, the z-score is active: -2.25.

As for GGAAAACAAGUGCAGCAUGTT against Pgap1, the z-score was inactive: -0.0346.

Turning to GGGAAAUGAGUUUCUACCGTT against Ebna1bp2, the z-score was inactive: -0.891.

For GGGAUUUUUUAUUAAGCCCTT against Foxg1, the z-score was inactive: -0.258.

Take CCACCACAAGUACCGUAAATT against Aurkaip1: the z-score was inactive: -0.818.

Consider GAGUGUGAAGAUAGACUUCTT against Myl4, for which the z-score is inactive: 0.0215.

Turning to GCAGCUAUUGAGCAUGGUGTT against Atp6v1g3, the z-score was active: -2.16.

On to GGUUGUACUGAGUAGCUGGTT against Slc7a4, for which the z-score was inactive: 0.997.

Consider CCCUGAUCCUAGUGGAAAUTT against Kng1, for which the z-score is inactive: 0.474.

On to GCAGUAGAGGAGCAAUAUUTT against Mxra7, for which the z-score was inactive: -1.44.

As to GCUUCAUGCACGGUUCUAUTT against Cib2, the z-score is inactive: 1.65.

For GGACUGUUUCCUAUCCACUTT against Vmn2r1, the z-score was inactive: -1.06.

As to GGUUACCAUGAAGGCUGGATT against Bpifb6, the z-score was inactive: -0.988.

For GGAGAGAAGAAAAAAAGAATT against Prrc2b, the z-score was inactive: -1.65.

As to GCCUGACUUCAGACUAUUUTT against Stxbp5l, the z-score is inactive: 1.

As to GCUGUGUCGUUCAAAAGAATT against Cd80, the z-score was inactive: -0.315.

Consider GGAGAAAAGCUCUGUUCACTT against Olfr1195, for which the z-score was inactive: 0.906.

GGACAUUCAACCUGAAGUUTT against Hs6st3: the z-score was inactive: 0.472.

Take GGUCAAAAGACUGUACAUATT against Timm8a2: the z-score was active: 2.07.

GCUCUUGACACUAGAGAUUTT against Ap1s3: the z-score was inactive: 0.0373.

GGUUGUUAAGCUGAAGCAATT against Prkacb: the z-score is inactive: -0.219.

In the case of GGCUAAUUCUGGCUUACGATT against Wfdc5, the z-score was inactive: 0.342.

As for ACAUACCAGUCUCUGUACCTT against Pigu, the z-score is inactive: -1.56.

Take GGAAAAGGUGGCCUACACATT against Rhox11: the z-score is inactive: -1.7.

Turning to GGCAUAACAGAGAUGAUGATT against Ttc30a1, the z-score is inactive: -0.0751.

For the sequence GGUUCUUGGAUAAAUCAAGTT against Mrpl40, the z-score was active: 2.41.

For CCUAUCAUUGGACCUUAAATT against Dscaml1, the z-score was inactive: 0.428.

GGGAGUGCCCAUCAUUGUUTT against Rhod: the z-score was inactive: -0.696.

For the sequence GGAGAAAAACUUCUGGAACTT against Wdr41, the z-score is inactive: -0.522.

In the case of GGUUAGCAACAUUAAGAAGTT against Cops7b, the z-score was inactive: -1.6.

Consider GGCGAAUGUGUGAAGAGGCTT against H2-Q5, for which the z-score is inactive: -1.97.

Regarding GGGUCAGAAUGUUACCAAATT against Cdc27, the z-score is inactive: 0.432.

GAUGGACAGGUUCAUGAUUTT against Rtl6: the z-score is inactive: -1.21.

On to GCGAAAGAAGGUGAUUAUGTT against Cyp26a1, for which the z-score is inactive: -0.487.

As for GCAUCUGUAAUGAACUGGUTT against Mrpl10, the z-score was inactive: 0.774.

With GUUUGAAGGAUCGGAGAAGTT against Shf, the z-score was inactive: -0.367.

Take GGUGGUGACCUUGGAUGUUTT against Gstp3: the z-score was inactive: -0.00982.

Take GGGCUGGCUACGAUAAGCUTT against Tes: the z-score is inactive: 1.53.

Regarding GGGACAUGAGUAACUGAUGTT against Dhx8, the z-score was inactive: -0.908.

Turning to GGAGCUUGAAAUUGUCAUUTT against Magoh, the z-score is active: -3.51.

As for “GGAUCUCGAGCUGACAGAATT against Arhgap33os”, the z-score was inactive: 1.31.

Take GGACUCUUCUGAACUCUACTT against Ifna13: the z-score is inactive: 0.0465.

As to GGAGUCCAAAGAGAAGUUCTT against Hdgfl1, the z-score was inactive: 0.816.

In the case of GGUAGUGUGAAAAUCCUGGTT against Bst1, the z-score is inactive: -1.51.

As for CCACUCAUUGUUCAUGGAATT against Olfr1490, the z-score was inactive: 0.798.

Consider GGACAUGUUCAACUCCUUCTT against Ppp4r1, for which the z-score is inactive: -0.311.

Regarding CCAAAACUUGGGCAUGUGCTT against Olfr94, the z-score is inactive: 0.0027.

GGGCUUUCACACAAUCCCUTT against Kcns1: the z-score is inactive: -0.362.

With GGAGAGCCUGAGCAAGAAUTT against Tmem164, the z-score was inactive: -1.58.

Regarding GGCAUACCCACAACUGAUGTT against Aars2, the z-score was inactive: -1.21.

In the case of CGUGUAACACACGAUUAGATT against Myot, the z-score is inactive: 0.587.

For GGAGUGCAGUCACUAUUUGTT against Il2rg, the z-score is inactive: -0.0154.

On to GGUUCACGUAUUAAAAACATT against Cryz, for which the z-score is inactive: -0.118.

With GGAUAGCAACAGAAAACGUTT against Lgi3, the z-score is inactive: 1.04.

Take GGAGUUUGGAAUAAAAAGGTT against Flt3: the z-score is inactive: -0.173.

With “GGCUGGAAUCGAUCAUUUCTT against 3830417A13Rik”, the z-score is inactive: 1.19.

For the sequence GGCGGGUUUGCUGAAUAACTT against Lrrc26, the z-score was active: 2.43.

On to GGGUUCUCAAGAAUUAAAGTT against Fbn1, for which the z-score was inactive: -0.217.

For GGCUAAUUGCUACGUUCCCTT against Fam210b, the z-score was inactive: 1.24.

For the sequence GGGCCUGAAGUAUGAAUGGTT against Lsm5, the z-score is inactive: -0.42.

As to GUGUUUCCUUGUUAAGAUUTT against Bloc1s4, the z-score was inactive: -0.841.

Regarding AUAUCAGACUGACAUAGCATT against Obox5, the z-score was active: 2.47.

With GGUCCACACCAGACAUCAATT against Wfdc5, the z-score is inactive: 0.263.

Turning to GGAGCAACUGUUUUAAAAGTT against P3h2, the z-score is inactive: 1.34.

With GCUCCUAACUUUUGUCAUATT against Ppp3r2, the z-score was inactive: -0.269.

As to GGAAACUUUAGCAUGAAUGTT against Hmgxb4, the z-score is inactive: -0.335.

On to CCCUGACGAAGCCAUACAUTT against Bcor, for which the z-score is inactive: 1.47.

On to GAACUCCAGGGUAUAGUCUTT against Prss3, for which the z-score was inactive: 1.79.

Regarding GGAAAGGUUUAAUCAUGAATT against Spred1, the z-score was inactive: 0.602.

On to CCAUAAGCUACCAUUUCGATT against Smcp, for which the z-score is inactive: -0.677.

As to “CGUGUUUUAUGUCCGUCAUTT against 9330154K18Rik”, the z-score was inactive: -1.04.

As to GGAAUGCACAAAUUGAAAATT against Edn1, the z-score is inactive: 0.12.

With CCAUGAAAGUCACUUGUAUTT against Map2k6, the z-score is inactive: -0.506.

Turning to GGUCAACCUAAACCAGCAGTT against Csn1s2a, the z-score is inactive: -0.182.

In the case of CGGCCUACAACUACCCAACTT against Tekt3, the z-score was inactive: 1.02.

With AUUUACGGGAGAUCAGCUUTT against Olfr670, the z-score is inactive: -0.697.

Consider GGAGGAUGAAGAGCUAUUATT against Smarca5, for which the z-score was inactive: -0.0196.

On to GCCUUGGUCCUUAAAUAUATT against Slc7a2, for which the z-score is inactive: -0.414.

In the case of GCAAGCCAAGCACUUCAUUTT against Ppp1cc, the z-score is inactive: 0.314.

Turning to GCGUGGAGAUAAAACCAAUTT against Phka2, the z-score was inactive: -1.37.

As to GCAGGUACCCGGAUUGUCATT against Acr, the z-score is inactive: 1.41.

Take GGCCGAUGCCAAAUUGGUATT against Olfm1: the z-score was inactive: 0.0323.

In the case of ACAAGAAACGUACAAGACATT against Fbxw20, the z-score was inactive: 0.818.

In the case of GGAGUUCCUUUUUAAACACTT against Bnip3, the z-score is inactive: 0.831.

As to “CGAACUUCCAAAAAGUUCATT against A430005L14Rik”, the z-score was inactive: -0.498.
